This is one part of the list.
biological target: OsWRKY34 (Oryza sativa, UniProt Q0JBA9 1-250); assay: protein-binding microarray (RPBM); PBS, 2% BSA, 51.3 ng/ul salmon testes DNA, 50 uM zinc acetate, 200 nM TF, 25 C, 1 h; high values mean tight binding; conditions: protein: recombinant; tags: N-terminal polyhistidine and DsRed monomer fusion (pET32a); label: CyDye5-dUTP incorporated in the synthesized complementary strand; 3' TTTTT single-stranded linker to array surface; dsDNA, one strand shown
Procedure, shortened: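 Binding signal is defined as the fluorescence intensity of each feature in arbitrary units, read on an Axon 4000B scanner. Transcription factors with N-terminal polyhistidine and DsRed fusions came from E. coli BL21-CodonPlus and were purified on Ni–NTA. They were incubated at 200 nM for 1 h at 25 °C on a custom Agilent array that had been made double-stranded with Cy5-dUTP, with 50 µM zinc acetate present, and the array was washed.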

Protein sequences, listed by entry. Tags and fused reporters are not part of them.
UniProt Q0JBA9, entry or part of it: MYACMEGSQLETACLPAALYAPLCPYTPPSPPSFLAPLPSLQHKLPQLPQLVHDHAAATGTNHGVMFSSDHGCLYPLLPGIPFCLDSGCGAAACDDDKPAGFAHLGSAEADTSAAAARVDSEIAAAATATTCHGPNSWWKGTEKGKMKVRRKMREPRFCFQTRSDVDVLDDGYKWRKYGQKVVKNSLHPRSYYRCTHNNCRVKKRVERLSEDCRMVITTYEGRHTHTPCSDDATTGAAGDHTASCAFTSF

Row | Sequence | binding signal
1 | ACGTGGCGGCGTTGACTTAGTCTTCGTTCCACGTGTAGTTCGGAGTCACCTAGTGCAG | 11400 fluorescence intensity (a.u.)
2 | ATTGTTTTAGCCACCTTCCCACTCCTGCCATTATCCATTCCGGAGTCACCTAGTGCAG | 10200 fluorescence intensity (a.u.)
3 | GTTCCAAATCGTCGCAGTTACCGTCTTCTCCACTAATTTCCGGAGTCACCTAGTGCAG | 9590 fluorescence intensity (a.u.)
4 | TTGGTTGAGTGGGGAGAGAGAGGGGAAAACACCAAGAAAGCGGAGTCACCTAGTGCAG | 8710 fluorescence intensity (a.u.)
5 | AAACCTCCACCACCACCGCCACCACCGCCGCGCAAAACCCCGGAGTCACCTAGTGCAG | 8700 fluorescence intensity (a.u.)
6 | GAAACAAAGCCCCAAAACCCAATCTATCCTCAATTGATTTCGGAGTCACCTAGTGCAG | 8500 fluorescence intensity (a.u.)
7 | TACTGGTTTGTGTGTGTCGGTATTTCCCTTACAAAATGATCGGAGTCACCTAGTGCAG | 10000 fluorescence intensity (a.u.)
8 | TGTCTTATTTCTGCATGTCTCTTAGAAGTCAAAATTTATACGGAGTCACCTAGTGCAG | 9530 fluorescence intensity (a.u.)
9 | TTAACAGCGAAGCAAAACATCTCACTTTTTTTCTCTTTTGCGGAGTCACCTAGTGCAG | 9950 fluorescence intensity (a.u.)
10 | AAATCTAACGGCCCATGAACGCATCTCACCGTCCCCTTCTCGGAGTCACCTAGTGCAG | 8910 fluorescence intensity (a.u.)
11 | ATGTTGTCGCGACTTTCGTATTCAGTCATTTAAGATATGTCGGAGTCACCTAGTGCAG | 10900 fluorescence intensity (a.u.)
12 | ATCCCGCGCAAAAGCTGCGGCTCCACGCGCGCGCGTCATCCGGAGTCACCTAGTGCAG | 8080 fluorescence intensity (a.u.)
13 | CATATTTCTTCTCTCTCTCTACCACCCTACCTAGCTTAGACGGAGTCACCTAGTGCAG | 9360 fluorescence intensity (a.u.)
14 | CCTCCTTCGCCGTCATGGAGGCCCTCGGCTCCGCGCTCACCGGAGTCACCTAGTGCAG | 8460 fluorescence intensity (a.u.)
15 | CTCTGCACCCAGCCCAGTCCGAGCAATTTCTTTTACGTTGCGGAGTCACCTAGTGCAG | 10300 fluorescence intensity (a.u.)
16 | CGGTGAGGGGTGGACTGGGAGTGCGTGGGTGGGTGTGATGCGGAGTCACCTAGTGCAG | 13400 fluorescence intensity (a.u.)
17 | CCATTTCCGTACCGTTTTAGCCCATACACCACACTTGTGGCGGAGTCACCTAGTGCAG | 9000 fluorescence intensity (a.u.)
18 | TCGCCGCAACCGCAATGTAAGCCGCTTGCCTTTTCTTCTTCGGAGTCACCTAGTGCAG | 8650 fluorescence intensity (a.u.)
19 | TTAGCGGCGGTGGCAAGTGCTCCAACATTGACTTCTAACTCGGAGTCACCTAGTGCAG | 8380 fluorescence intensity (a.u.)
20 | TGATTTCATCCACTTTTCCTTTCGGTTGTTCTCATTCACTCGGAGTCACCTAGTGCAG | 13600 fluorescence intensity (a.u.)
21 | CTCTCGGCCGCCGCTCCGCCGTGCCTATGGCCGCCGCCGGCGGAGTCACCTAGTGCAG | 8550 fluorescence intensity (a.u.)
22 | ACTTGATGTTGTCATATGATGGTTGCATGCTTGCATGTTTCGGAGTCACCTAGTGCAG | 8130 fluorescence intensity (a.u.)
23 | TGTCTTCCAGTTTGATCCTTCCATGCAGTATATCAGTATTCGGAGTCACCTAGTGCAG | 9900 fluorescence intensity (a.u.)
24 | TGAGCTTACACGTTTTGATACCTGTGATGTTCGAATAAACCGGAGTCACCTAGTGCAG | 9050 fluorescence intensity (a.u.)
25 | CTGAGAATTTAGGACCTGATCACTTTTATGACATTTTCAACGGAGTCACCTAGTGCAG | 8610 fluorescence intensity (a.u.)
26 | TCCATTCTCCACTCTCCTCTCTCTCAATCATTCTAATCGACGGAGTCACCTAGTGCAG | 8330 fluorescence intensity (a.u.)
27 | GAGACCGCCGCCGCCTCCTCGTCCGGCCGCCGCCTCGTCCCGGAGTCACCTAGTGCAG | 9360 fluorescence intensity (a.u.)

Quoted at random: 4 entries already listed.
Row | Sequence | binding signal
12 | ATCCCGCGCAAAAGCTGCGGCTCCACGCGCGCGCGTCATCCGGAGTCACCTAGTGCAG | 8080 fluorescence intensity (a.u.)
22 | ACTTGATGTTGTCATATGATGGTTGCATGCTTGCATGTTTCGGAGTCACCTAGTGCAG | 8130 fluorescence intensity (a.u.)
21 | CTCTCGGCCGCCGCTCCGCCGTGCCTATGGCCGCCGCCGGCGGAGTCACCTAGTGCAG | 8550 fluorescence intensity (a.u.)
2 | ATTGTTTTAGCCACCTTCCCACTCCTGCCATTATCCATTCCGGAGTCACCTAGTGCAG | 10200 fluorescence intensity (a.u.)

Further results follow.

Row | Sequence | binding signal
28 | TCCGAAATGTCACGCCGTTATGCATTTGCTGTTTTGCCGTCGGAGTCACCTAGTGCAG | 8750 fluorescence intensity (a.u.)
29 | CACAGTTTTTGCAGCCGGAACGAGCTGTCCAGGCTACTACCGGAGTCACCTAGTGCAG | 8260 fluorescence intensity (a.u.)
30 | GCTCCATCCCTCCGTCTTCCACGGCGCGAGACTCTCTCGACGGAGTCACCTAGTGCAG | 10000 fluorescence intensity (a.u.)
31 | CTCTCGGTCTTGCAGTGCATAATGTTTTTTGTTTTTTTTTCGGAGTCACCTAGTGCAG | 10700 fluorescence intensity (a.u.)
32 | CCAAGTATCCATCACACGTCTCTCCTTTCCACCTCGTCAACGGAGTCACCTAGTGCAG | 12700 fluorescence intensity (a.u.)
33 | ATGACGAGGACGGGCGGTGGGCATGGGCGGTTGGCGAGGACGGAGTCACCTAGTGCAG | 8850 fluorescence intensity (a.u.)
34 | TGTTCAGATTTATTGTATTAGGGGTTATAGATTGGATTTTCGGAGTCACCTAGTGCAG | 11800 fluorescence intensity (a.u.)
35 | CTCCATGCTTGTTGCATGTCTCTTTGCATATGCGCATGGCCGGAGTCACCTAGTGCAG | 8370 fluorescence intensity (a.u.)
36 | GATCATGCCATGCTTTTCCTTCCCTGTCCTGCAAGATTCGCGGAGTCACCTAGTGCAG | 9100 fluorescence intensity (a.u.)
37 | TTCGTTTTGCGTGCCGGGAAGGAGGGGTTCCCAACTCTTTCGGAGTCACCTAGTGCAG | 9350 fluorescence intensity (a.u.)
38 | CCATTGCTTTCTTTTTTTCCTACAATACTTGCTTGCTTACCGGAGTCACCTAGTGCAG | 9480 fluorescence intensity (a.u.)
39 | TTTTTTTCGTTTCACTATATATAAGTTAATTTTCATTTGTCGGAGTCACCTAGTGCAG | 8070 fluorescence intensity (a.u.)
40 | CATTACAATTCGTCTATTCATAGCTGTGCCACTTAAATTTCGGAGTCACCTAGTGCAG | 9890 fluorescence intensity (a.u.)
41 | ACGCACGCTCGATCGATCACTATCTCTCTTTCTCTTTCTTCGGAGTCACCTAGTGCAG | 11800 fluorescence intensity (a.u.)
42 | CCCGACCGCCACCCACCGCCTTGCGCCCGGCCACCACCGCCGGAGTCACCTAGTGCAG | 10600 fluorescence intensity (a.u.)
43 | ACGAACATTTCATTTCTTATATTTTTGCATAGTTTTTTTACGGAGTCACCTAGTGCAG | 8670 fluorescence intensity (a.u.)
44 | GTCAGCGTCGGCGAGCTGCTCGGGGACGGCGGGGTGGAGGCGGAGTCACCTAGTGCAG | 11700 fluorescence intensity (a.u.)
45 | AGTGCAGACACGATTCTCGCGTGTTTACTTTTCTACTTCTCGGAGTCACCTAGTGCAG | 9750 fluorescence intensity (a.u.)
46 | GCGGAACGGGTGGGTTGTGGCTTGTGGGTCCCCAATTCACCGGAGTCACCTAGTGCAG | 9140 fluorescence intensity (a.u.)
47 | GTAACCGGCCAGGCCAGCGGTCAGTCCCGCGTGCAACACCCGGAGTCACCTAGTGCAG | 8720 fluorescence intensity (a.u.)
48 | CCTCCTGGCCCCACGCGCCCCACGCCACCTTGATACTCGCCGGAGTCACCTAGTGCAG | 9840 fluorescence intensity (a.u.)
49 | ATGTGTCCTGATGTCCTCTCAACTCTCTAAGCTTGTTTTTCGGAGTCACCTAGTGCAG | 9700 fluorescence intensity (a.u.)
50 | CCAACGTCTAAACCAACTTCATCTCTCTGGTTTATTTTGTCGGAGTCACCTAGTGCAG | 9760 fluorescence intensity (a.u.)
51 | TCAGTTTATTTTATTTTATTTGTTTTGTTGGACTTTCTTGCGGAGTCACCTAGTGCAG | 11700 fluorescence intensity (a.u.)
52 | ATATCCTTCTCAATTGTGCACATAGCCAAGCCATTTAACCCGGAGTCACCTAGTGCAG | 12100 fluorescence intensity (a.u.)
53 | CACATTTAATTCAAATTTCTGTTCGTCTTACAGTCAGCTACGGAGTCACCTAGTGCAG | 8600 fluorescence intensity (a.u.)
54 | CCTTTTCTTCCTTTTCTCTCTTTTCCCAGCCGCCACTGTTCGGAGTCACCTAGTGCAG | 9600 fluorescence intensity (a.u.)

Source: PMC7819943, “Rice protein-binding microarrays: a tool to detect cis-acting elements near promoter regions in rice”
